Assay results reported in patent US6365722.
No constants are given. Whether binding was seen depends on the method and setting. Some results given as binding are weak or reduced against the parent protein; the word gives no strength.

Sequences of proteins named here, by UniProt entry; tags and fusion partners are left off. A change or cut given only in a name is not applied to a line headed by its entry.
UniProt P04386: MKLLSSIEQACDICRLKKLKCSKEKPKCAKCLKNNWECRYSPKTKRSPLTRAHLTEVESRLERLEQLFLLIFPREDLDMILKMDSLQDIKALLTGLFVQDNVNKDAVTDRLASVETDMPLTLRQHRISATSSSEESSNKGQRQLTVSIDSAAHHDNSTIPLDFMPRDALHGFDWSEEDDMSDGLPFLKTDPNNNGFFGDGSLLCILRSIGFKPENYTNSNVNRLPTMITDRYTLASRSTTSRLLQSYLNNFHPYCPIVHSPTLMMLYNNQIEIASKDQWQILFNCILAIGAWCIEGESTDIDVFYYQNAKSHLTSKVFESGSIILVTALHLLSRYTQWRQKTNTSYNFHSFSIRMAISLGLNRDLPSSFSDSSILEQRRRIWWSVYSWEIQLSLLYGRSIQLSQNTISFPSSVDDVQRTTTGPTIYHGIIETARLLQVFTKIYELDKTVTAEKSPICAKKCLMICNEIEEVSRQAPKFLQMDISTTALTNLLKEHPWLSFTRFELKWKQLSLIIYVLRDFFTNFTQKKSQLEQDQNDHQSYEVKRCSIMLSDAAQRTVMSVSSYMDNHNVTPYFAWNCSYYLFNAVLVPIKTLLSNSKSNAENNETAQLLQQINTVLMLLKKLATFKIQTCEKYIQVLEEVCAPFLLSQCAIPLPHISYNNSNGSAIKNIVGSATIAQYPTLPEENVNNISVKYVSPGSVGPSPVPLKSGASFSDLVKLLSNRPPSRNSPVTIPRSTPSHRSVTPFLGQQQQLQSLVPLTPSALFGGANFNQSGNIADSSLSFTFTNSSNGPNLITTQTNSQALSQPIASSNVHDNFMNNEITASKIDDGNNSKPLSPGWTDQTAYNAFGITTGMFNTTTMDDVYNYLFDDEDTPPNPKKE
UniProt Q60680: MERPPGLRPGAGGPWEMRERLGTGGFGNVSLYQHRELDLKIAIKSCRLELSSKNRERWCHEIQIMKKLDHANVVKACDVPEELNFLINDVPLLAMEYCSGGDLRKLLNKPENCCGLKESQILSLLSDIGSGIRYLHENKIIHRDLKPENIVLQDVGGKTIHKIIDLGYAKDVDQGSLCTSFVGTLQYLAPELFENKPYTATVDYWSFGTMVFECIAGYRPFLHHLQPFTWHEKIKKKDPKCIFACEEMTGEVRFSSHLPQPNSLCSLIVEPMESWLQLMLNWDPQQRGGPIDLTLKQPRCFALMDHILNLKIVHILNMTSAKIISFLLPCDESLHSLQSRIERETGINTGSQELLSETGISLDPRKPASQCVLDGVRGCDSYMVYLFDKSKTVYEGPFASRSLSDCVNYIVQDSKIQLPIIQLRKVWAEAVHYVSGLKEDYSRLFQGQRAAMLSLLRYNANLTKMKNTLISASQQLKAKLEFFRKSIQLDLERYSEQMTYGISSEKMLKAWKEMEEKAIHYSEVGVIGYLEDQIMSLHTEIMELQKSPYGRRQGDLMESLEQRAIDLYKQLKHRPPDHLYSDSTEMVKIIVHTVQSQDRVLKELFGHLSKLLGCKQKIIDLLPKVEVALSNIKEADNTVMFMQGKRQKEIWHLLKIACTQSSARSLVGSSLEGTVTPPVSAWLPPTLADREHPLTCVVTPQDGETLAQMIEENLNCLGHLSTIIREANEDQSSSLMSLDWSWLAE
UniProt P25685: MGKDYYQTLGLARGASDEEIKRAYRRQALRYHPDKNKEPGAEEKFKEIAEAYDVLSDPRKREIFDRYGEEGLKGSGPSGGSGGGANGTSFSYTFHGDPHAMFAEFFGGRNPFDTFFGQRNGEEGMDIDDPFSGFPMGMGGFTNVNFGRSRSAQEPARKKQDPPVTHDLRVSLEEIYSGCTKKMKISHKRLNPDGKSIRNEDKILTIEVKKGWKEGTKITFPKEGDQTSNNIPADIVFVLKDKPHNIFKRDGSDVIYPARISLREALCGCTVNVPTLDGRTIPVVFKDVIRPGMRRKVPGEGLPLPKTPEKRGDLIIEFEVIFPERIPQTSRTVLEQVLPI
UniProt Q9UNS2: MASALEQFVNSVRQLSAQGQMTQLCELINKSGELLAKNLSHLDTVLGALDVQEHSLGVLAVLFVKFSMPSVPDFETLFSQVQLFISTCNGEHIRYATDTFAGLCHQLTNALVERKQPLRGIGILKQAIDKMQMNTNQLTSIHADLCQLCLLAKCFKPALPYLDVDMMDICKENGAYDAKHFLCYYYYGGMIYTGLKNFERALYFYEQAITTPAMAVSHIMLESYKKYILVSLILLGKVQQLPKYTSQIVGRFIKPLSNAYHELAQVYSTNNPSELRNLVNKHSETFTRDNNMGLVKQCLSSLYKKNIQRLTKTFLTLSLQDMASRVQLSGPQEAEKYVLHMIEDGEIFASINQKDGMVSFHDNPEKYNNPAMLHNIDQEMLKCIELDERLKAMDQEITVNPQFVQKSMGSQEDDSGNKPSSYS

Key:
[1] = biological target: T1, IKKα bait: 937 bp SnaBI/XhoI fragment of the murine IKKα clone encoding the protein's leucine zipper, helix-loop-helix and carboxyl terminus, in the pGTB9c bait vector (murine) (UniProt P04386+Q60680); experiment: yeast two-hybrid, relative interaction strength by colony growth rate
[2] = biological target: T1, IKKα bait: 937 bp SnaBI/XhoI fragment of the murine IKKα clone encoding the protein's leucine zipper, helix-loop-helix and carboxyl terminus, in the pGTB9c bait vector (murine); experiment: yeast two-hybrid, colony growth

| binding [1] | binding [2] | Substance |
| --- | --- | --- |
| binds | binds | Y2h clone 31, Hsp40 (from UniProt P25685 1-340) |
| binds | – | Y2h clone 70, HuSgn3 (from UniProt Q9UNS2 1-423) |
